The other results are listed elsewhere or left out. The calls rarely recur for the same compound in another form.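 In K562 cells expressing nanoluciferase-fused kinases, luminescence was recorded at 4 h intervals between 2 and 18 h, normalized as percent of control with DMSO at 100% and a positive control at 0%. A significant (2 sigma) signal drop marks a time point as decreased. The authors' rule for a hit is not shown and takes in more than the number of time points.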
Tests used:
Assay in all cases: number of time points (of 5) at which kinase-Nluc abundance scored as decreased, DMSO-normalised (count); higher = more persistent destabilization
Details in all cases: K562; 2-18 h
[1] = molecular target: NTRK3 (UniProt Q16288)
[2] = molecular target: PAK4 (UniProt O96013)
[3] = molecular target: PBK (UniProt Q96KB5)
[4] = molecular target: PDGFRB (UniProt P09619)
[5] = molecular target: PDK1 (UniProt Q15118)
[6] = molecular target: PDPK1 (UniProt O15530)
[7] = molecular target: PIK4CA (UniProt P42356)
[8] = molecular target: PIK4CB (UniProt Q9UBF8)
[9] = molecular target: PLK1 (UniProt P53350)
[10] = molecular target: PRKAA1 (UniProt Q13131)
[11] = molecular target: PRKCA (UniProt P17252)
[12] = molecular target: PTK2 (UniProt Q05397)
[13] = molecular target: PTK2B (UniProt Q14289)
[14] = molecular target: RAF1 (UniProt P04049)
[15] = molecular target: RAF1_S257L (clone: RAF1_mut) (UniProt P04049)
[16] = molecular target: RET (UniProt P07949)
[17] = molecular target: RET_M918T (clone: RET_mut) (UniProt P07949)
[18] = molecular target: RIOK1 (UniProt Q9BRS2)
[19] = molecular target: RIPK1 (UniProt Q13546)
[20] = molecular target: RIPK2 (UniProt O43353)

The chains behind the UniProt entries cited, without tags or fusion partners. Where a name states a change or a piece, a line headed by the entry shows the natural chain unless it says otherwise.
UniProt Q16288, whole entry, looked up: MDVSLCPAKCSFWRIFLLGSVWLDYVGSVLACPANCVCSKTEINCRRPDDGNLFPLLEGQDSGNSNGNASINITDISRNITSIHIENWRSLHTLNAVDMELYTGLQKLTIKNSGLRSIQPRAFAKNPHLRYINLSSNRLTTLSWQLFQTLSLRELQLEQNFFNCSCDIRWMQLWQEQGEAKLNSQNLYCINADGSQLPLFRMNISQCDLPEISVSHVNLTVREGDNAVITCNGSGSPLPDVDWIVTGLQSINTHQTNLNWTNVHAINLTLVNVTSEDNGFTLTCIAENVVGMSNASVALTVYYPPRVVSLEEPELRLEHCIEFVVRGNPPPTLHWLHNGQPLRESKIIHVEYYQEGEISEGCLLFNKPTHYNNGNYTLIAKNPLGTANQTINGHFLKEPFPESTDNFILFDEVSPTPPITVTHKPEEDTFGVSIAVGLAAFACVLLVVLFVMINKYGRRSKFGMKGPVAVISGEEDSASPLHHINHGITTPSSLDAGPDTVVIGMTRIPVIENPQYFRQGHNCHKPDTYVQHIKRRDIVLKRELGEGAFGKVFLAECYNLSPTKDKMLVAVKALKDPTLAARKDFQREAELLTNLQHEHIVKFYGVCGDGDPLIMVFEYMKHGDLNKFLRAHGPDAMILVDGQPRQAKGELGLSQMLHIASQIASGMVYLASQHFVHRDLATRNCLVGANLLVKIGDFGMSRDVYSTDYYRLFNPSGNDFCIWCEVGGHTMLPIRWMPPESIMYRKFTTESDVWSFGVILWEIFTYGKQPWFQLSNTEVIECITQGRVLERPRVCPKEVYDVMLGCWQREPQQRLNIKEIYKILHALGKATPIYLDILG
UniProt O96013: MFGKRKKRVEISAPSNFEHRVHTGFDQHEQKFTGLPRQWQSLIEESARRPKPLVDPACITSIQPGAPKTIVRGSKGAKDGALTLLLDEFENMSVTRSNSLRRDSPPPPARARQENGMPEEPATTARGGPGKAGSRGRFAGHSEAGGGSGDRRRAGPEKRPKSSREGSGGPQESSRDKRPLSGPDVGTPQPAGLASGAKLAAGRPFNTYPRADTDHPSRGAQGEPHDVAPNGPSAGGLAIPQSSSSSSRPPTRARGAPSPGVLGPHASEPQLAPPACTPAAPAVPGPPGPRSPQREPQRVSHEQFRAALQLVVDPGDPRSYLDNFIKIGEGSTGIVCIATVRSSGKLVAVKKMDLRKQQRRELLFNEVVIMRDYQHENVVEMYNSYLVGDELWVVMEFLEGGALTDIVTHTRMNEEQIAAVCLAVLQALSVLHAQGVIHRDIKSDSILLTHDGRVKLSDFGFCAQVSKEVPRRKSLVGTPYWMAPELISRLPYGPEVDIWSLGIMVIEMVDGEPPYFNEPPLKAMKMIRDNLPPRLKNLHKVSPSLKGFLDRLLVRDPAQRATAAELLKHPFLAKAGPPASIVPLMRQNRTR
UniProt Q96KB5: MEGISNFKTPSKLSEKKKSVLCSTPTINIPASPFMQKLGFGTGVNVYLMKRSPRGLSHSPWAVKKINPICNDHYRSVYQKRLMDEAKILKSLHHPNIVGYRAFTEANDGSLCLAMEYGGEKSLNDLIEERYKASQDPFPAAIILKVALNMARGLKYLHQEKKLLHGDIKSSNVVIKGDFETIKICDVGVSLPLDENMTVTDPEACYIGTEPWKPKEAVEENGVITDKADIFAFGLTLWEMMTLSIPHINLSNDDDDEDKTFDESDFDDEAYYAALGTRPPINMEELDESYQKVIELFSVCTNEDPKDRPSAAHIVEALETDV
UniProt Q15118, whole entry, looked up: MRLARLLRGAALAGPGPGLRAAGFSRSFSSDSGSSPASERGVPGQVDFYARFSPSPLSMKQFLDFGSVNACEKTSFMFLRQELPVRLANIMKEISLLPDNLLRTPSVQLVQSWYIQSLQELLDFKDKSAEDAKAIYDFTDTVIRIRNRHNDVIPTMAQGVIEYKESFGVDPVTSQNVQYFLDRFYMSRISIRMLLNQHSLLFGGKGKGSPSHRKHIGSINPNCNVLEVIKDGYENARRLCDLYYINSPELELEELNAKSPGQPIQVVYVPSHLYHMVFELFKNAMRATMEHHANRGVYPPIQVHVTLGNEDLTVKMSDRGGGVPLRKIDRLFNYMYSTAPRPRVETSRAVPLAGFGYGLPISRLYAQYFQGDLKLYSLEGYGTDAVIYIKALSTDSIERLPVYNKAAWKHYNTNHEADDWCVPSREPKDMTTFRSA
UniProt O15530: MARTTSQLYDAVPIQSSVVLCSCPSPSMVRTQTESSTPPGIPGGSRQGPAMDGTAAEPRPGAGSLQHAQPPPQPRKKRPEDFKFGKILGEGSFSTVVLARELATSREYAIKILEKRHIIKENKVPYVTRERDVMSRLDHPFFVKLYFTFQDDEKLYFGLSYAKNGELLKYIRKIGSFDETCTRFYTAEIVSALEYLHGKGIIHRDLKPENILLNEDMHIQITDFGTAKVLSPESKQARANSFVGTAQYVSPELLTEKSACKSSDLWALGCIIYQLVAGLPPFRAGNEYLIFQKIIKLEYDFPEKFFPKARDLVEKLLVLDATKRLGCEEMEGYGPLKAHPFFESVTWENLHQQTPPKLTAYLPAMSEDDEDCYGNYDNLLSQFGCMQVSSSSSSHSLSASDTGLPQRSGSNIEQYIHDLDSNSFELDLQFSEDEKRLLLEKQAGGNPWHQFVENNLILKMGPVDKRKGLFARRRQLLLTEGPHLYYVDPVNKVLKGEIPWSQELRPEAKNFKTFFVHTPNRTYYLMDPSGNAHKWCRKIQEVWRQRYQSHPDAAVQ
UniProt Q13131: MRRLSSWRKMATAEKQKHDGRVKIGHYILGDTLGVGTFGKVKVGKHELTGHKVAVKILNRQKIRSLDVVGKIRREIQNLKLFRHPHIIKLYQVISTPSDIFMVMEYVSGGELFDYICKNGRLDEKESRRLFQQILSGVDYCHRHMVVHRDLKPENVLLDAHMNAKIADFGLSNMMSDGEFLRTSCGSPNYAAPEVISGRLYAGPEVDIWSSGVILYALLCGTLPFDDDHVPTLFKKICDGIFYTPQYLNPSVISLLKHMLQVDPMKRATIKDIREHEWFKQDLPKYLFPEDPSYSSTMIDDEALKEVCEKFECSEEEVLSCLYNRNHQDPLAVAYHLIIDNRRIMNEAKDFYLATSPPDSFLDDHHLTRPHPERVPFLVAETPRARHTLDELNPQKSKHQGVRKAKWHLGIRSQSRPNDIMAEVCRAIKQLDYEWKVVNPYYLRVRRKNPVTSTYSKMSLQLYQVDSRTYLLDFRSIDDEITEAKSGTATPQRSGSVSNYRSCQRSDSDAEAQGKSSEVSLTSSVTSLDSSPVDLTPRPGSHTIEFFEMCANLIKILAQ
UniProt P07949, whole entry, looked up: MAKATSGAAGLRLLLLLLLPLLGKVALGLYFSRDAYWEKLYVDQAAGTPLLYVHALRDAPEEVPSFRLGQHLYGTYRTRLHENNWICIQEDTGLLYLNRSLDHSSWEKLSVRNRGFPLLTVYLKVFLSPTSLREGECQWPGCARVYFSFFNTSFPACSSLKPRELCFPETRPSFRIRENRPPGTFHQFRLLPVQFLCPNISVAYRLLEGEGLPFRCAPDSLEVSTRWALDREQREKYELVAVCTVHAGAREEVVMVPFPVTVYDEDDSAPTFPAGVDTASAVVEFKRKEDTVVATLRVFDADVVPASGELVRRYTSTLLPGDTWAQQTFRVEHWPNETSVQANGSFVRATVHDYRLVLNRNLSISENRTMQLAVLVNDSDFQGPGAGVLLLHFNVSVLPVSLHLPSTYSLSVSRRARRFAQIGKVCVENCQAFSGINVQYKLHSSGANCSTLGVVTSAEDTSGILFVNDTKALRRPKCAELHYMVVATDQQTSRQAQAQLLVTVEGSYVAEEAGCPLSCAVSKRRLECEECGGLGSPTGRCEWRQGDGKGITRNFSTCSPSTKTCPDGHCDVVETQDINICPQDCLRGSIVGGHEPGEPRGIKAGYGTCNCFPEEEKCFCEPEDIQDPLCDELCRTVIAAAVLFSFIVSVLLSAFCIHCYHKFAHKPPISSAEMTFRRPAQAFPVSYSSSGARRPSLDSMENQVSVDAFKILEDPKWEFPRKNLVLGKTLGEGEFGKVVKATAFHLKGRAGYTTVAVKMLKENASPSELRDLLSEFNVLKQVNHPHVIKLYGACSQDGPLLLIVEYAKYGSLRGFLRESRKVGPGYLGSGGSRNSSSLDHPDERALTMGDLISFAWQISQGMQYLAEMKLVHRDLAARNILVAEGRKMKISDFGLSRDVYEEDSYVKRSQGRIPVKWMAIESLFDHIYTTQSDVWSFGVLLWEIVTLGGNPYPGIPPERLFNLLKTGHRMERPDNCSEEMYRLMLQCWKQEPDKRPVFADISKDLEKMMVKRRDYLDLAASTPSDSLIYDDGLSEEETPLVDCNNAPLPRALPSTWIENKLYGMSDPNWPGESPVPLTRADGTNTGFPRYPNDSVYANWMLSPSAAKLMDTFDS
UniProt P07949, whole entry M918T, looked up: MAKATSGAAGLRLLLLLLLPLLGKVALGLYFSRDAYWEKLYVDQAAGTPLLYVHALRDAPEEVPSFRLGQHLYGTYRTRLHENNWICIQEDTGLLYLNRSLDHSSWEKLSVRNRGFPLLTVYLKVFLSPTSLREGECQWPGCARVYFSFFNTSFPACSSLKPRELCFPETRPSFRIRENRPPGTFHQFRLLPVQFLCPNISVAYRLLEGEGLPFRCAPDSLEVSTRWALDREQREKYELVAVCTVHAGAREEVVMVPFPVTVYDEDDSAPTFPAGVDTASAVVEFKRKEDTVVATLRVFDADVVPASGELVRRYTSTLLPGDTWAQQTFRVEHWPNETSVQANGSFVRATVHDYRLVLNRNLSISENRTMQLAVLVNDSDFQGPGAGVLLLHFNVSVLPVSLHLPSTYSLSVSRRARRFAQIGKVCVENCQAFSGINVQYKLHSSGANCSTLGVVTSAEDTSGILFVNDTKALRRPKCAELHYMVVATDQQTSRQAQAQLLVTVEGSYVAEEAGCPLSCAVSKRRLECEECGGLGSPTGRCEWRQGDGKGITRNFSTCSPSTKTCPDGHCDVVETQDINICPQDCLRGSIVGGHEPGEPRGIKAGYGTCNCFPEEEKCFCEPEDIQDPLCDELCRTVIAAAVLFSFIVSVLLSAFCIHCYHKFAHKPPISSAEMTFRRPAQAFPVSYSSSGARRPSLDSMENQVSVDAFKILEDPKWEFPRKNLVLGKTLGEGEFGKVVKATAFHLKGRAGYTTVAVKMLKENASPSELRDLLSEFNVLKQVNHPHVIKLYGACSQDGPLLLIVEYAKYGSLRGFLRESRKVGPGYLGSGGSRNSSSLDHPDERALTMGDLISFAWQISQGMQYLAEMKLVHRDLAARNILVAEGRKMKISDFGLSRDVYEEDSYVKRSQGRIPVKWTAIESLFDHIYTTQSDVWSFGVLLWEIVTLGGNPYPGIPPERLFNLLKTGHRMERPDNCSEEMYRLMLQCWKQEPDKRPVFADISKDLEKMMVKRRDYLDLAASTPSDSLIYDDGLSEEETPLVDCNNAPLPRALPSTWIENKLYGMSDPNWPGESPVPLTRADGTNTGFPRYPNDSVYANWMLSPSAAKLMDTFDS
UniProt Q13546: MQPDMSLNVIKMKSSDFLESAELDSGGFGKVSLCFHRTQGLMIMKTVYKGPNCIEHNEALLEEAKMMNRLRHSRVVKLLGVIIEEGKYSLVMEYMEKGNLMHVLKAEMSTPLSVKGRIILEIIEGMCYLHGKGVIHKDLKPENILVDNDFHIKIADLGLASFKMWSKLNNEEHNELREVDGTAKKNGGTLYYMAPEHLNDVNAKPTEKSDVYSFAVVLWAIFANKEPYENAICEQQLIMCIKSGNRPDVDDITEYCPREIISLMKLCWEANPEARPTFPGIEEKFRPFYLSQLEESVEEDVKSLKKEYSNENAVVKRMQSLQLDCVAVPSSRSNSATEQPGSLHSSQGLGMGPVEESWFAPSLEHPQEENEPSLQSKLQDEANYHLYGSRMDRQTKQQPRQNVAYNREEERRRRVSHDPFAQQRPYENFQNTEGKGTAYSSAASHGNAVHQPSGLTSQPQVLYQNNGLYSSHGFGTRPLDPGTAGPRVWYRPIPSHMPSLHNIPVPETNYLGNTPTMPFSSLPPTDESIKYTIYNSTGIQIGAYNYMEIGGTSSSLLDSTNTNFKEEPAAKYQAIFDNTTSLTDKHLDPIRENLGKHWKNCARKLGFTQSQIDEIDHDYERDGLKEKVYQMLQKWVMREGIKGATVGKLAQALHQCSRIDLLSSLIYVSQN

Measured: number of time points

C[C@@]12CCc3occc3[C@H]1CC[C@@]13C[C@@H](CC[C@H]12)[C@@](O)(CO)C3 [Cafestol] (10 µM)
0: all assays above

C=CC(=O)Nc1cccc(Oc2nc(Nc3ccc(N4CCN(C)CC4)cc3)nc3ccsc23)c1 [Olmutinib] (2.5 µM)
0: all assays above

COc1cc(/C=C/c2ccc(NC(=O)/C=C/c3cc(OC)c(OC)c(OC)c3)cc2)cc(OC)c1 (2.5 µM)
0: all assays above

Cc1cc(Nc2ncc(Cl)c(Nc3ccccc3S(=O)(=O)C(C)C)n2)c(OC(C)C)cc1C1CCN(CC(=O)NCCNc2cccc3c2C(=O)N(C2CCC(=O)NC2=O)C3=O)CC1 (stereo not given) (10 µM)
5: [12]
0: all other assays above

CC(=O)NCC(=O)N[C@@H](C)C(=O)N[C@@H](CCC(N)=O)C(=O)N[C@@H](Cc1ccccc1)C(=O)N[C@@H](CO)C(=O)N[C@@H](CCCCN)C(=O)N[C@H](C(=O)N[C@@H](C)C(=O)N[C@@H](C)C(=O)N[C@@H](CCCCN)C(=O)O)[C@@H](C)O (10 µM)
0: all assays above

COC(=O)c1cc2c(OC(C)C)cc(OC(C)C)cc2[nH]1 (2.5 µM)
0: all assays above

CN(C/C=C/C(=O)Nc1ccc(C(=O)Nc2cccc(Nc3ncc(Cl)c(-c4c[nH]c5ccccc45)n3)c2)cc1)CCCNC(=O)NCCOCCOCCOCCNC(=O)CCCC[C@@H]1SC[C@@H]2NC(=O)N[C@@H]21 (2.5 µM)
2: [4] | [5] | [16]
1: [13] | [14] | [18]
3: [12] | [19] | [20]
0: all other assays above

CS(=O)(=O)N1CCc2c(-c3cnc(N)nc3)nc(N3CCOCC3)nc21 (10 µM)
1: [6]
0: all other assays above

— the supplement of paper PMC12823440, “Inhibitors supercharge kinase turnover through native proteolytic circuits” (Nature, 2025)
